# Assay results: the supplement of paper PMC9135407
# Several values for one entry are separate records, joined by “and”; a condition that tells them apart may be missing. Identical values can stand only once. Counter-ions that a name gives are not always drawn. ± gives the standard deviation of the averaged measurements. The list shows a part of the results. Part of the spread comes from offsets between plates or batches.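 Primary human stellate myofibroblasts activated in culture; inactivation shown by regained lipid droplets. Readout: fraction of Hoechst-counted cells exceeding a per-plate Bodipy threshold, duplicate wells, each plate with DMSO negative and nortriptyline positive controls. Hits: control-normalized score beyond the plate's top-tenth-percentile nortriptyline wells, or among its three best wells. Final well concentrations unstated.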
# System: primary human hepatic stellate cells (donor 1)
# Assay: percent Bodipy-positive cells; higher = more lipid droplet accumulation
# Conditions: 48 h
# Experimental: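 Primary lipid accumulation screen in primary human hepatic stellate cell myofibroblasts (donor 1, passage 8) in 384-well plates. 100 nL of library compound was pin-transferred into 30 µL medium in duplicate, and cells were treated for 48 h. The 'Scaled' score combines distance from plate baseline, toxicity and reproducibility penalties, and is normalised to nortriptyline (positive) and DMSO (negative) controls on each plate. A hit is defined as scaled >0.85 or among the top 3 wells per plate.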
# [1] = library stock concentration: 3.33 mM
# [2] = library stock concentration: 10 mM
# [3] = library stock concentration: 1 mM
# [4] = library stock concentration: 2 mM
smiles,measurement,setting,value
Nc1nc(Cl)nc2c1ncn2[C@H]1C[C@H](O)[C@@H](CO)O1 [Cladribine],percent Bodipy-positive cells,[1],10.2 ± 2.7%
same,percent Bodipy-positive cells,[2],23.7 ± 2.3%
Cc1cc(C=C2C(=O)C=CC2=O)cc(C)c1O,percent Bodipy-positive cells,[2],87.8 ± 6.3%
N=C(N)NC(=N)Nc1ccccc1 [1-Phenylbiguanide hydrochloride],percent Bodipy-positive cells,[2],9.41 ± 2.4%
NCCNC(=O)c1ccc(Cl)cn1 [Lazabemide hydrochloride],percent Bodipy-positive cells,[2],8.16 ± 0.93%
CC(C)N1Cc2cc(S(C)(=O)=O)ccc2N(CCN2CC=C(c3c[nH]c4cc(F)ccc34)CC2)S1(=O)=O,percent Bodipy-positive cells,[2],16.7 ± 1.7%
CCCCC/C=C\C/C=C\CC/C=C\CCCC(=O)OC [Pinolenic Acid methyl ester],percent Bodipy-positive cells,[3],7.66 ± 3.1%
CCC(=O)O[C@@H](O[P@](=O)(CCCCc1ccccc1)CC(=O)N1C[C@H](C2CCCCC2)C[C@H]1C(=O)O)C(C)C [Fosinopril],percent Bodipy-positive cells,library stock concentration: 3.5 mM,7.37 ± 3.3%
COc1cccc2c1C(=O)c1c(O)c3c(c(O)c1C2=O)C[C@@](O)(C(=O)CO)C[C@@H]3O[C@H]1C[C@H](N)[C@H](O)[C@H](C)O1 [Doxorubicin],percent Bodipy-positive cells,library stock concentration: 8.6 mM,100%
COc1cccc2c1C(=O)c1c(O)c3c(c(O)c1C2=O)C[C@@](O)(C(=O)CO)C[C@@H]3O[C@H]1C[C@H](N)[C@H](O)[C@H](C)O1 [Doxorubicin (Adriamycin)],percent Bodipy-positive cells,[1],100%
same,percent Bodipy-positive cells,[2],50 ± 71%
COc1cccc2c1C(=O)c1c(O)c3c(c(O)c1C2=O)C[C@@](O)(C(=O)CO)C[C@@H]3O[C@H]1C[C@H](N)[C@H](O)[C@H](C)O1,percent Bodipy-positive cells,[2],87.5 ± 18%
COc1cccc2c1C(=O)c1c(O)c3c(c(O)c1C2=O)C[C@@](O)(C(=O)CO)C[C@@H]3O[C@H]1C[C@H](N)[C@H](O)[C@H](C)O1 [Doxorubicin hydrochloride],percent Bodipy-positive cells,,100%
same,percent Bodipy-positive cells,[2],50 ± 71%
Cn1cnc2c(NCc3ccccc3)nc(NCCO)nc21 [Olomoucine],percent Bodipy-positive cells,[3],12.9 ± 0.96%
same,percent Bodipy-positive cells,library stock concentration: 16.8 mM,25.15 ± 0.22%
Cc1cc(C(=O)NOCCO)c(Nc2ccc(I)cc2F)n(C)c1=O,percent Bodipy-positive cells,library stock concentration: 80 uM,11.9 ± 1.5%
same,percent Bodipy-positive cells,library stock concentration: 400 uM,11 ± 1.9%
same,percent Bodipy-positive cells,[4],8.15 ± 1.8%
same,percent Bodipy-positive cells,[1],5.6 ± 2.7%
same,percent Bodipy-positive cells,[2],9.69% and 11.4%
O=C(OCc1ccccc1)[C@H](O)c1ccccc1 [(R)-benzyl Mandelate],percent Bodipy-positive cells,[3],11.6 ± 8.2%
CC1(C)S[C@@H]2[C@H](NC(=O)[C@H](N)c3ccc(O)cc3)C(=O)N2[C@H]1C(=O)O [Amoxicillin Sodium],percent Bodipy-positive cells,[1],6.78 ± 3.5%
same,percent Bodipy-positive cells,[2],12.7 ± 0.43%
CC1(C)S[C@@H]2[C@H](NC(=O)[C@H](N)c3ccc(O)cc3)C(=O)N2[C@H]1C(=O)O [Amoxicillin],percent Bodipy-positive cells,,24.3 ± 1.1%
same,percent Bodipy-positive cells,[1],7.9 ± 1.8%
same,percent Bodipy-positive cells,[2],23.5% and 10.7%
CC1(C)S[C@@H]2[C@H](NC(=O)[C@H](N)c3ccc(O)cc3)C(=O)N2[C@H]1C(=O)O,percent Bodipy-positive cells,[2],16.1 ± 3.5%
O=C(O)/C=C/CCCCCCCCC(=O)O [Traumatic Acid],percent Bodipy-positive cells,[3],11.2 ± 3.7%
OCCOCCN1CCN(C2=Nc3ccccc3Sc3ccccc32)CC1,percent Bodipy-positive cells,[2],35.73 ± 0.3%
OCCOCCN1CCN(C2=Nc3ccccc3Sc3ccccc32)CC1 [Quetiapine fumarate],percent Bodipy-positive cells,library stock concentration: 2.3 mM,26.7 ± 3.6%
OCCOCCN1CCN(C2=Nc3ccccc3Sc3ccccc32)CC1 [Quetiapine Fumarate],percent Bodipy-positive cells,[1],15.8 ± 3.1%
OCCOCCN1CCN(C2=Nc3ccccc3Sc3ccccc32)CC1 [Quetiapine],percent Bodipy-positive cells,library stock concentration: 5.2 mM,26.6 ± 9.7%
COC(=O)C1=C(C)NC(C)=C(C(=O)NCCCN2CCC(c3ccccc3)(c3ccccc3)CC2)C1c1ccc([N+](=O)[O-])cc1 (centres undefined),percent Bodipy-positive cells,[2],100%
Cc1ccc(C(=O)Nc2cccc(C(F)(F)F)c2)cc1Nc1nc(-c2cccnc2)nc2c1cnn2C,percent Bodipy-positive cells,[1],73.5 ± 6%
same,percent Bodipy-positive cells,[2],99.19 ± 0.4%
CCCCC[C@@](C)(O)/C=C/[C@H]1[C@H](O)CC(=O)[C@@H]1C/C=C\CCCC(=O)O [15(R)-15-methyl Prostaglandin E2],percent Bodipy-positive cells,[3],11.9 ± 3.6%
CCCCC/C=C\C/C=C\CCCCCCCC(=O)OCC [Linoleic Acid ethyl ester],percent Bodipy-positive cells,[3],31.2 ± 23%
Oc1ccc(OC2CCCCO2)cc1 (centres undefined) [Deoxyarbutin],percent Bodipy-positive cells,[1],17.3 ± 17%
same,percent Bodipy-positive cells,[2],41.2 ± 17%
C=C1C[C@@]23CC[C@H]4[C@@](C)(CCC[C@@]4(C)C(=O)O)[C@@H]2CC[C@]1(O)C3 [Steviol],percent Bodipy-positive cells,[2],19.7 ± 7.5%
Nc1cccc2c1C(=O)N(C1CCC(=O)NC1=O)C2=O (centres undefined) [Pomalidomide],percent Bodipy-positive cells,[1],7.73 ± 1.5%
same,percent Bodipy-positive cells,[2],11.1 ± 4.3%
"COc1cc(OC)cc(OC)c1 [1,3,5-trimethoxybenzene]",percent Bodipy-positive cells,[2],35.2 ± 13%
COc1cc(O)c(C(=O)c2ccccc2)cc1S(=O)(=O)O,percent Bodipy-positive cells,[2],46.7 ± 16%
COc1cc(Nc2ncc(F)c(Nc3ccc4c(n3)N(COP(=O)(O)O)C(=O)C(C)(C)O4)n2)cc(OC)c1OC [Fostamatinib (R788)],percent Bodipy-positive cells,[2],88.8 ± 1.3%
O=c1cnn([C@@H]2O[C@H](CO)[C@@H](O)[C@H]2O)c(=O)[nH]1,percent Bodipy-positive cells,[2],18.4 ± 9.8%
N=C(N)NC(=O)Cc1c(Cl)cccc1Cl [Guanfacine hydrochloride],percent Bodipy-positive cells,,37.8 ± 18%
N=C(N)NC(=O)Cc1c(Cl)cccc1Cl [Guanfacine HCl],percent Bodipy-positive cells,library stock concentration: 7.1 mM,14.3 ± 7.2%
CC/C=C\C/C=C\C/C=C\CCCCCCCC(=O)N[C@@H](Cc1ccc(O)cc1)C(=O)O [N-(.alpha.-Linolenoyl) Tyrosine],percent Bodipy-positive cells,[3],14.5 ± 9.6%
Cc1ccc(CC2(O)CCN(CCOc3ccc(O)cc3)CC2)cc1,percent Bodipy-positive cells,[2],38.3 ± 8.6%
Cc1ccc(NC(=O)Nc2cc(C(F)(F)F)ccc2F)cc1Nc1ccc2c(c1)NC(=O)C2=Cc1ccc[nH]1,percent Bodipy-positive cells,[4],74 ± 3.5%
same,percent Bodipy-positive cells,[2],99.12 ± 0.39%
CCCCCCCCCC(=O)N[C@@H](Cc1c[nH]c2ccccc12)C(=O)N[C@@H](CC(N)=O)C(=O)N[C@@H](CC(=O)O)C(=O)N[C@@H]1C(=O)NCC(=O)N[C@@H](CCCN)C(=O)N[C@@H](CC(=O)O)C(=O)N[C@H](C)C(=O)N[C@@H](CC(=O)O)C(=O)NCC(=O)N[C@H](CO)C(=O)N[C@@H]([C@H](C)CC(=O)O)C(=O)N[C@@H](CC(=O)c2ccccc2N)C(=O)O[C@@H]1C [DAPTOMYCIN (5 millimolar/DMSO)],percent Bodipy-positive cells,[2],26.8 ± 5.1%
